Laboratory results reported in the supplement of paper PMC12823440, “Inhibitors supercharge kinase turnover through native proteolytic circuits” (Nature, 2025).
Counter-ions that a name gives are not always drawn. The list shows a part of the results. The calls rarely recur for the same compound in another form.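 Kinases, fused to nanoluciferase, were expressed in K562 cells; luminescence was measured every 4 h from 2 to 18 h as percent of control (DMSO = 100%, positive control = 0%). A time point is decreased if signal falls significantly (2 sigma). Hits were called by the authors by a rule that is not shown; the count of time points alone does not decide it.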

Amino acid sequences for entries named in this document (tags omitted). A change or cut given only in a name is not applied to a line headed by its entry.
UniProt Q16288, whole entry, looked up: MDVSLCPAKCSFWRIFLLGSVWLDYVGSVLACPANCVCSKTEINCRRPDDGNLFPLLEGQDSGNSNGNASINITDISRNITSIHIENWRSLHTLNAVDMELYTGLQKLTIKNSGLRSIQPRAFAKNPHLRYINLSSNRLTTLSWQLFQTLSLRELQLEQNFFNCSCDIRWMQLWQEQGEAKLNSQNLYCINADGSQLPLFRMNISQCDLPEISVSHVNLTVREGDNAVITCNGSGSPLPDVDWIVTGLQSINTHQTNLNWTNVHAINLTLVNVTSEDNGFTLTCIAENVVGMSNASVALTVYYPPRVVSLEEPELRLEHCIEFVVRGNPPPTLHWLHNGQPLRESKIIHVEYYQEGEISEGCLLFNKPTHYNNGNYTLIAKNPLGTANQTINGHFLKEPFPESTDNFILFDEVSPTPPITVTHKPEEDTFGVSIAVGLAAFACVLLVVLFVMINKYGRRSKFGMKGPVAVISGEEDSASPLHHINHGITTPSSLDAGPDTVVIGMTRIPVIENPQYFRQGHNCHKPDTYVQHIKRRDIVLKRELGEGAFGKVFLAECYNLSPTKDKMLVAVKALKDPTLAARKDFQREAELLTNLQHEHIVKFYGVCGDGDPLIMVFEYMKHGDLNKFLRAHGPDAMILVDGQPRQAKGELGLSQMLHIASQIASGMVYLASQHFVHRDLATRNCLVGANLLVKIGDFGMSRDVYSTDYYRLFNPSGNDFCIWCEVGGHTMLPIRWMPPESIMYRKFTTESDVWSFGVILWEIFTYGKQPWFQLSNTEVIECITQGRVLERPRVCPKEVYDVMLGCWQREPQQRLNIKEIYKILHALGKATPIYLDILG
UniProt O96013: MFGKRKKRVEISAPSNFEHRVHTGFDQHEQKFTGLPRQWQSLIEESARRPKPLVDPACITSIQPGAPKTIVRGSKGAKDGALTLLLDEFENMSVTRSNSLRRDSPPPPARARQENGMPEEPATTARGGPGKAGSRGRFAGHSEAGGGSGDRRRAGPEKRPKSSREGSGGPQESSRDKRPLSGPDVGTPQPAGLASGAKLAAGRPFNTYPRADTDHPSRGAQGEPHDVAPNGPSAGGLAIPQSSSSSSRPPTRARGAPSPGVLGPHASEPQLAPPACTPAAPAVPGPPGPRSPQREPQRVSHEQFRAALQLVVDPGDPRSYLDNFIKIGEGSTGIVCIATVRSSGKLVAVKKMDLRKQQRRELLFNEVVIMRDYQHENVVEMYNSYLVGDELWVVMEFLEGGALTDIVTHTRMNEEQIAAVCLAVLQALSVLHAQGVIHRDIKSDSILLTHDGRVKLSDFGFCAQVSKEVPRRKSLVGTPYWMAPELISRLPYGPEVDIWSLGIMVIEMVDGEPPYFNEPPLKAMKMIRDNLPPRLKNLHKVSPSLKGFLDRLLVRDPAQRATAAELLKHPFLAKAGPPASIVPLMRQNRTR
UniProt Q96KB5: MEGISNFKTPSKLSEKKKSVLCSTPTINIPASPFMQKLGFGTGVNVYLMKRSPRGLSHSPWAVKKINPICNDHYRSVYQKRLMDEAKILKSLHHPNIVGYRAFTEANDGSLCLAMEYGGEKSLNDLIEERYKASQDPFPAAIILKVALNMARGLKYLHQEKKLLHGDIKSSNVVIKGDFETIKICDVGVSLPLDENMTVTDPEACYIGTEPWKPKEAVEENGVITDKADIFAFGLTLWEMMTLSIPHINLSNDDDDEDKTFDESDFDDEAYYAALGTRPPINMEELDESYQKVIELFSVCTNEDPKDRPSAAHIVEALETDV
UniProt Q15118, whole entry, looked up: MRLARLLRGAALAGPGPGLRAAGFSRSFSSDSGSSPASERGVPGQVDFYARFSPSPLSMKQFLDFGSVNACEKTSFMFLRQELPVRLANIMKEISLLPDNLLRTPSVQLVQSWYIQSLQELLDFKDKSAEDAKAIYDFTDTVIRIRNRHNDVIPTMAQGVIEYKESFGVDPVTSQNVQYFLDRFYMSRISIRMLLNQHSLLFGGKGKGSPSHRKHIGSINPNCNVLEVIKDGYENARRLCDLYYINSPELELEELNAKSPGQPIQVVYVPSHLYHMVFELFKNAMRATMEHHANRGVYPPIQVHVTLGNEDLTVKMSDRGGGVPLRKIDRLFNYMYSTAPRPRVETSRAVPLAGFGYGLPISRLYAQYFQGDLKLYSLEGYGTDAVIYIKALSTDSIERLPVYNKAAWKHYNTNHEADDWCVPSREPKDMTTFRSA
UniProt O15530: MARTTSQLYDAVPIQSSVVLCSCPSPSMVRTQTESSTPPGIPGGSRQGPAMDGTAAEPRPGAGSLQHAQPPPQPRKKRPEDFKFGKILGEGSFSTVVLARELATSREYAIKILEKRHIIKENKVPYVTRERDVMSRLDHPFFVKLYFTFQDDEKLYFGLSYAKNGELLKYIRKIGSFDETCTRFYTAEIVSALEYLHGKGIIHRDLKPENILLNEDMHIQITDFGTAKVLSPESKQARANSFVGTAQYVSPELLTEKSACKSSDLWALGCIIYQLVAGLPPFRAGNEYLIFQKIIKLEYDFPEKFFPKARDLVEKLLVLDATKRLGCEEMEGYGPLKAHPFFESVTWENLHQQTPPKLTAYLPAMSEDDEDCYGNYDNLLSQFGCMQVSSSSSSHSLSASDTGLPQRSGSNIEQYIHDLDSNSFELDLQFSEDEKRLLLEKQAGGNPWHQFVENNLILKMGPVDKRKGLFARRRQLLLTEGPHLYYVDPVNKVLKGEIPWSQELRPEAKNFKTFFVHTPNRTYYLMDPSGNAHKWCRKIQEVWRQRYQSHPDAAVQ
UniProt P42356, whole entry, looked up: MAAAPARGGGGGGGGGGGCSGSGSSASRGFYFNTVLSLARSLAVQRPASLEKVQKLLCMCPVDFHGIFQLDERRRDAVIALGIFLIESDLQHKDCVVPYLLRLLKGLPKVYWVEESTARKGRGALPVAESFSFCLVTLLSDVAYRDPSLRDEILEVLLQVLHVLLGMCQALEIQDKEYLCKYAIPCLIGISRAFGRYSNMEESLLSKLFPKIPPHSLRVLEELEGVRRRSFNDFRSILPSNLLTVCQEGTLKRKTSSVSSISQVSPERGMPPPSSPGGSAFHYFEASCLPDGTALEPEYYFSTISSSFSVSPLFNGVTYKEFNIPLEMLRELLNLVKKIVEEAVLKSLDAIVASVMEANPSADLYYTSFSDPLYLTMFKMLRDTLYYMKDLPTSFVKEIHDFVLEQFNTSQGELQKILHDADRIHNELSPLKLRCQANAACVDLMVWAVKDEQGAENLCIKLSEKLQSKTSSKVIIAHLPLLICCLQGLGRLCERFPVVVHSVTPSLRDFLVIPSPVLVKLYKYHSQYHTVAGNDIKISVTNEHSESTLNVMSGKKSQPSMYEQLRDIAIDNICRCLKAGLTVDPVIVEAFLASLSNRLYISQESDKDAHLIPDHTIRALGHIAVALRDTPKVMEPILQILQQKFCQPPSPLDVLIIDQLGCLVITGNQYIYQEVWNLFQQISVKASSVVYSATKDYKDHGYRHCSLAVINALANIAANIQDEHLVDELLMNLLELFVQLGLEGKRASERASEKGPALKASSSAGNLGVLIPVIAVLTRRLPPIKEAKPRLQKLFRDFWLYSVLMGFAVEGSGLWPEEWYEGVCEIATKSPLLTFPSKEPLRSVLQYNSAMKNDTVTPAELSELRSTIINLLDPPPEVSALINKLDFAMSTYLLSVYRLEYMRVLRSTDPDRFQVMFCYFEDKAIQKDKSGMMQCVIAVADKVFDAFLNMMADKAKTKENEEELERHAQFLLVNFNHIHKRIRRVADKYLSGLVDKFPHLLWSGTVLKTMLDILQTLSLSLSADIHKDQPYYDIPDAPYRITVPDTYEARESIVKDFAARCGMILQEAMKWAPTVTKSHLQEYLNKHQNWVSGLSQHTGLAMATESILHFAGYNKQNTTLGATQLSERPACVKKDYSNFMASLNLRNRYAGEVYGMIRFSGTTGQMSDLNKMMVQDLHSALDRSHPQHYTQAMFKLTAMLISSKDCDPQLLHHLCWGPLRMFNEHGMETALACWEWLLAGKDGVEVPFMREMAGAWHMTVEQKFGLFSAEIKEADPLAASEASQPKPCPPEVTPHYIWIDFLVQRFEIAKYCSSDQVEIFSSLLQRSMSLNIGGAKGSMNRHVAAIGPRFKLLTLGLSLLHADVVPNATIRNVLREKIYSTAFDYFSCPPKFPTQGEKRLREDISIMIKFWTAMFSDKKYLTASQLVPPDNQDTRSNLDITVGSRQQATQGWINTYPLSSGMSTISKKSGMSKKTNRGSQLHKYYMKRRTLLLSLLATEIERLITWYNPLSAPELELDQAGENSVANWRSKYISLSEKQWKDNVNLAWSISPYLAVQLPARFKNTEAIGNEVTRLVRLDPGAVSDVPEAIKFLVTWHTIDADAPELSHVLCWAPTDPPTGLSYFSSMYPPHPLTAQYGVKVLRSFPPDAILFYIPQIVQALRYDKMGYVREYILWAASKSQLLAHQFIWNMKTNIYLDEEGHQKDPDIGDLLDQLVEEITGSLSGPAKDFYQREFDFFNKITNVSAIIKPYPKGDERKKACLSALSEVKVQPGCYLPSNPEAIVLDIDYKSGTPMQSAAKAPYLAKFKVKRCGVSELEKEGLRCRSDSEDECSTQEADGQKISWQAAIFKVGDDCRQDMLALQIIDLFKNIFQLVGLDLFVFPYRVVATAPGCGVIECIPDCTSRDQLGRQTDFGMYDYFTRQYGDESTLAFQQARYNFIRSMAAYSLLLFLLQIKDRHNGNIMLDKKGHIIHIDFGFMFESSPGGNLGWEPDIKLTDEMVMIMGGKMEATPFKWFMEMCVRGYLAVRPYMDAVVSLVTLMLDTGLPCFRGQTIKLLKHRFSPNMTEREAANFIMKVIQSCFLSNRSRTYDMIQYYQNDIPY
UniProt Q9UBF8: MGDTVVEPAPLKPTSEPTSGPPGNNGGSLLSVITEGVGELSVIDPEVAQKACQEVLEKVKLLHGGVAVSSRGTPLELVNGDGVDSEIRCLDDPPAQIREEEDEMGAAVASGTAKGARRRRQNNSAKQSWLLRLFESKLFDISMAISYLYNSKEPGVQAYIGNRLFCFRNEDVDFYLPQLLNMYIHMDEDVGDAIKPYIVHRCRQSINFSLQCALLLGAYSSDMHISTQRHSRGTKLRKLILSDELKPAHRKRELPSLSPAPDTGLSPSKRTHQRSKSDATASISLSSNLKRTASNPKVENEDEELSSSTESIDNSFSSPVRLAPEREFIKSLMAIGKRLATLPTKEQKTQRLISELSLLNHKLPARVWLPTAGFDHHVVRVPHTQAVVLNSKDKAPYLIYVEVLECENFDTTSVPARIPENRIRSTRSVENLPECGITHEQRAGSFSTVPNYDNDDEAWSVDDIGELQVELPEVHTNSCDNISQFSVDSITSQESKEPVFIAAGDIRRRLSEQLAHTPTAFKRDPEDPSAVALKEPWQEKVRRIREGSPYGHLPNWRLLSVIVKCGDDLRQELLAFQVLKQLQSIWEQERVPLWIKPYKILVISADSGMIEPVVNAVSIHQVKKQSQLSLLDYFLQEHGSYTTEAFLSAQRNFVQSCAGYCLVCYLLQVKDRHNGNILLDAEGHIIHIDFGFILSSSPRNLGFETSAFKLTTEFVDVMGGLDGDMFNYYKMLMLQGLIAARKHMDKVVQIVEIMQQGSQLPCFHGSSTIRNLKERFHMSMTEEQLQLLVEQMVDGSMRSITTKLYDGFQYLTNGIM
UniProt Q13131: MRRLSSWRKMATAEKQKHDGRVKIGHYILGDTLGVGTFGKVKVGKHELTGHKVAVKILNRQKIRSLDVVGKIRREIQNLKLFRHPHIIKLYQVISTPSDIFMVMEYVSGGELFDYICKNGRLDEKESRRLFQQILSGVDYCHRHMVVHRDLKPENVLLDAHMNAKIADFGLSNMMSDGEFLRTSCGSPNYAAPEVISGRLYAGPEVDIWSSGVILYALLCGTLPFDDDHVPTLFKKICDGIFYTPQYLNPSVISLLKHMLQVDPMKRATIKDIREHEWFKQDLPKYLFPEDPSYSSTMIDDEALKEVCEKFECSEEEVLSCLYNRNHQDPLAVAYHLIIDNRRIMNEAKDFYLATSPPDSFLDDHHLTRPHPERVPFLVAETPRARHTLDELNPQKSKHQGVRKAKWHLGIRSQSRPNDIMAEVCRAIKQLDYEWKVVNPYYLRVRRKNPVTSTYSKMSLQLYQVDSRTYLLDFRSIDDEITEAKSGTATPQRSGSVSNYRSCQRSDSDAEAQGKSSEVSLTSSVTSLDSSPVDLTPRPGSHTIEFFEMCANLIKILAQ

Key:
Assay in all cases: number of time points (of 5) at which kinase-Nluc abundance scored as decreased, DMSO-normalised (count); higher = more persistent destabilization
Settings in all cases: K562; 2-18 h
[1] = molecular target: NTRK3 (UniProt Q16288)
[2] = molecular target: PAK4 (UniProt O96013)
[3] = molecular target: PBK (UniProt Q96KB5)
[4] = molecular target: PDGFRB (UniProt P09619)
[5] = molecular target: PDK1 (UniProt Q15118)
[6] = molecular target: PDPK1 (UniProt O15530)
[7] = molecular target: PIK4CA (UniProt P42356)
[8] = molecular target: PIK4CB (UniProt Q9UBF8)
[9] = molecular target: PLK1 (UniProt P53350)
[10] = molecular target: PRKAA1 (UniProt Q13131)

Measured: number of time points

Cn1nccc1Nc1nccc(-c2ccn([C@H](CO)c3ccc(Cl)c(F)c3)c(=O)c2)n1 [Ravoxertinib] (10 µM)
0: all assays above

Cn1cnc2c(F)c(Nc3ccc(Br)cc3Cl)c(C(=O)NOCCO)cc21 [Selumetinib] (10 µM)
0: all assays above

C=CC(=O)Nc1ccc(CN2C(=O)N(c3cc(OC)cc(OC)c3)Cc3cnc(Nc4ccc(N5CCN(C)CC5)cc4)nc32)cc1 (2.5 µM)
0: all assays above

Nc1ncnc2c1c(-c1cccc(OCc3ccccc3)c1)cn2C1CC(CN2CCC2)C1 (stereo not given) (2.5 µM)
0: all assays above

CCc1cc2c(cc1N1CCC(N3CCOCC3)CC1)C(C)(C)c1[nH]c3cc(C#N)ccc3c1C2=O [Alectinib (Hydrochloride)] (2 µM)
0: all assays above

CCNc1nc(Nc2cc(F)c(C(=O)N3CCOCC3)cc2OC)ncc1C(F)(F)F [GNE-7915 (tosylate)] (10 µM)
0: all assays above

NC(=O)c1nnc(N[C@@H]2CCCC[C@@H]2N)nc1Nc1cccc2cc[nH]c12 (10 µM)
0: all assays above

CN(C)C(=O)Cn1cc(-c2ccc(-c3cncc4ccccc34)cc2)cn1 (10 µM)
0: all assays above

C[C@]1(O)CCN(c2nc(N3C[C@H](O)[C@@H](O)C3)cc(C(F)(F)F)c2C#N)C1 (10 µM)
0: all assays above

C[C@@H]1COCCN1c1cc(C2([S@@](C)(=N)=O)CC2)nc(-c2ccnc3[nH]ccc23)n1 [(S)-Ceralasertib] (10 µM)
0: all assays above

CC#CC(=O)Nc1ccc2ncnc(Nc3cccc(Br)c3)c2c1 (10 µM)
1: [4]
0: all other assays above

Oc1ccc(Nc2nc(-c3ccc(Cl)cc3)cs2)cc1 (10 µM)
0: all assays above

CCS(=O)(=O)c1ncc(Cl)c(C(=O)N(Cc2ccc(Cl)cc2)Cc2ccco2)n1 (2.5 µM)
0: all assays above

Nc1ncnc2c1c(-c1ccc(Oc3ccccc3)cc1)nn2C1CCCC1 (2.5 µM)
0: all assays above

C[C@@H]1CC[C@@H](Nc2nc(NC(C)(C)C)ncc2C(N)=O)C[C@H]1O (10 µM)
0: all assays above

COc1cc(Nc2ncc(F)c(Nc3ccc4c(n3)N(COP(=O)(O)O)C(=O)C(C)(C)O4)n2)cc(OC)c1OC [Fostamatinib (disodium hexahydrate)] (10 µM)
0: all assays above

CN1C(=O)N[C@H](Cc2c[nH]c3c(Cl)cccc23)C1=O [Necrostatin 2] (10 µM)
0: all assays above

CN(C)CCCOc1ccc(-c2ccc3ncc4c(c3c2)n(C2CCOCC2)c(=O)n4C)cn1 (2 µM)
0: all assays above

C=CC(=O)Nc1cccc(Nc2nc(Nc3ccc(N4CCN(C(C)=O)CC4)cc3OC)ncc2C(F)(F)F)c1 [Rociletinib hydrobromide] (10 µM)
0: all assays above

Cc1ccc(C(=O)Nc2ccc(Oc3cc4cnn(C)c4cc3-c3cn[nH]c3)c(F)c2)c(=O)n1-c1ccc(F)cc1 [Merestinib] (2.5 µM)
4: [4]
0: all other assays above

CCN1CCN(Cc2ccc(-c3cc4c(N[C@H](C)c5ccccc5)ncnc4[nH]3)cc2)CC1 (2.5 µM)
2: [6] | [7]
3: [8]
1: [4] | [9] | [10]
0: all other assays above

Cc1cc2ncc(-c3ccc(O)c(O)c3)nc2cc1C [Tyrphostin AG1433] (10 µM)
0: all assays above

FC(F)(F)c1ccc(CNc2ccc(Cc3c[nH]c4ncccc34)cn2)cc1 (10 µM)
0: all assays above

OCCn1cc(-c2ccc3c(c2)CC/C3=N\O)c(-c2ccncc2)n1 (10 µM)
0: all assays above

NC(=O)c1ccc2[nH]ccc2c1 (10 µM)
0: all assays above

Cn1nccc1Nc1nccc(-c2ccn([C@H](CO)c3ccc(Cl)c(F)c3)c(=O)c2)n1 [Ravoxertinib hydrochloride] (10 µM)
0: all assays above

Cc1cc(Nc2ncnc3ccc(NC4=NC(C)(C)CO4)cc23)ccc1Oc1ccn2ncnc2c1 [Tucatinib (hemiethanolate)] (2.5 µM)
0: all assays above

CC[C@@H](Oc1nc(Oc2cc(C)cc(-c3cccc(CN)c3)c2)c(F)cc1F)C(=O)O (10 µM)
0: all assays above

Cc1[nH]c(/C=C2\C(=O)Nc3ccc(F)cc32)c(C)c1C(=O)N[C@H]1CCN(C(=O)N(C)C)C1 [Vorolanib] (10 µM)
0: all assays above

Cc1nc2sccn2c(=O)c1CCN1CCC(=C(c2ccccc2)c2ccc(F)cc2)CC1 (10 µM)
0: all assays above

Retrieved one by one from the list above (3):
COc1cc(Nc2ncc(F)c(Nc3ccc4c(n3)N(COP(=O)(O)O)C(=O)C(C)(C)O4)n2)cc(OC)c1OC [Fostamatinib (disodium hexahydrate)] (10 µM)
0: all assays above

Oc1ccc(Nc2nc(-c3ccc(Cl)cc3)cs2)cc1 (10 µM)
0: all assays above

CC#CC(=O)Nc1ccc2ncnc(Nc3cccc(Br)c3)c2c1 (10 µM)
1: [4]
0: all other assays above

(further entries)

O=c1cc(CN2CCOCC2)occ1OCCCCCSc1ccnc2cc(C(F)(F)F)ccc12 (10 µM)
0: all assays above

NS(=O)(=O)c1ccc(-n2nc(C(F)(F)F)cc2-c2ccc(Cl)cc2)cc1 (10 µM)
0: all assays above

Cn1cnc(Cn2ccc3ccc(CNCc4[nH]c5ccccc5c4[C@H]4NC(=O)c5ccc(O)cc54)cc32)c1 (10 µM)
0: all assays above

COc1ncc(Cl)cc1S(=O)(=O)Nc1ccc(F)c(C#Cc2cnc(N)nc2)c1F (2.5 µM)
0: all assays above

CNc1nc(Nc2ccc(C(=O)N3CCOCC3)cc2OC)nc2[nH]cc(Cl)c12 (2.5 µM)
0: all assays above

Taken from the entries so far (2 entries):
O=c1cc(CN2CCOCC2)occ1OCCCCCSc1ccnc2cc(C(F)(F)F)ccc12 (10 µM)
0: all assays above

NS(=O)(=O)c1ccc(-n2nc(C(F)(F)F)cc2-c2ccc(Cl)cc2)cc1 (10 µM)
0: all assays above

The list continues.

O=Nc1c(-c2c(O)[nH]c3ccc(I)cc23)[nH]c2ccccc12 [5-Iodo-indirubin-3'-monoxime] (10 µM)
0: all assays above

Cc1[nH]c(/C=C2\C(=O)Nc3ccccc32)c(C)c1CCC(=O)O [Orantinib] (10 µM)
0: all assays above

FC(F)c1nc2ccccc2n1-c1nc(N2CCOCC2)nc(N2CCOCC2)n1 (2 µM)
0: all assays above

Nc1cc(C(F)(F)F)c(-c2cc(N3CCOCC3)nc(N3CCOCC3)n2)cn1 [Buparlisib (Hydrochloride)] (2.5 µM)
1: [4] | [10]
2: [7]
0: all other assays above

CC(=O)NC1CC(n2cnc(NC(=O)Cc3ccc4ccccc4c3)c2)C1 (stereo not given) (10 µM)
0: all assays above

NC(=O)c1nc(Nc2ccccc2)sc1NC(=O)C1CCCCC1 (10 µM)
0: all assays above

CCN1CCC(n2cc(CNc3cc(Cl)c4ncc(C#N)c(Nc5ccc(F)c(Cl)c5)c4c3)nn2)CC1 [Cot inhibitor-2] (2.5 µM)
0: all assays above

CCCS(=O)(=O)Nc1ccc(F)c(C(=O)c2c[nH]c3ncc(-c4ccc(Cl)cc4)cc23)c1F [Vemurafenib] (10 µM)
1: [1]
0: all other assays above

Cn1ncc(Cl)c1-c1cc(C(=O)N[C@H](CN)Cc2ccc(F)c(F)c2)oc1Cl [Uprosertib] (10 µM)
0: all assays above

COc1cc2c(cc1OC)CN(S(=O)(=O)c1ccc(OC)c(N3CCN(C(=O)c4ccc(F)cc4C(F)(F)F)CC3)c1)CC2 (10 µM)
0: all assays above

CC1=C(C(=O)O)N2C(=O)[C@@H](NC(=O)[C@H](N)C3=CCC=CC3)[C@H]2SC1 [Cephradine] (10 µM)
0: all assays above

CCN1CCN(Cc2ccc(Nc3ncc(F)c(-c4cc(F)c5nc(C)n(C(C)C)c5c4)n3)nc2)CC1 [Abemaciclib] (2 µM)
0: all assays above

COc1ccc(Cl)c(Nc2nc3ccccc3nc2NS(=O)(=O)c2cccc(NC(=O)C(C)(C)N)c2)c1 [Pilaralisib] (10 µM)
0: all assays above

c1cc(-c2c[nH]c3nccc(N4CCC[C@@]5(CCCCN5)C4)c23)ncn1 (10 µM)
0: all assays above

O=C1NC(=O)/C(=C/c2ccc3nccnc3c2)S1 (10 µM)
0: all assays above

CNC(=O)c1c(F)cccc1Nc1nc(Nc2cc3c(cc2OC)CCN3C(=O)CN(C)C)nc2[nH]ccc12 (10 µM)
0: all assays above

COc1cc(/C=C/C(=O)NCC(O)c2ccc(O)cc2)ccc1O (stereo not given) [N-Feruloyloctopamine] (2.5 µM)
0: all assays above

COc1cc(OC2CCN(C)CC2)ccc1Nc1ncc2c(n1)n(C1CCCC1)c(=O)n2C (10 µM)
0: all assays above

N#Cc1c(C2CCNCC2)cc(-c2c(O)cccc2OCC2CC2)nc1N [ACHP (Hydrochloride)] (10 µM)
0: all assays above

CN1CCC(c2cc(-c3ccncc3)c(-c3ccc(F)cc3)[nH]2)CC1 (10 µM)
2: [9]
0: all other assays above

c1ccc(-c2[nH]ncc2-c2ccnc3ccccc23)nc1 (10 µM)
0: all assays above

CN(C)CCSSCCNC(=O)C1CCN(C(=O)CSc2ccc(Cl)cc2)CC1 (10 µM)
0: all assays above

CC#CC(=O)N1CC[C@@H](n2c(=O)n(-c3ccc(Oc4ccccc4)cc3)c3c(N)ncnc32)C1 [Tirabrutinib] (10 µM)
0: all assays above

O=C1NC(=O)/C(=C\c2cccc(C(F)(F)F)c2)S1 (2.5 µM)
0: all assays above

C=C1C(=O)O[C@H]2C[C@H](C)C(/C=C/C(C)=O)=CC[C@H]12 [Xanthatin] (2.5 µM)
0: all assays above

Cn1cnc2c(F)c(Nc3ccc(Br)cc3Cl)c(C(=O)NOCCO)cc21 [Selumetinib (sulfate)] (10 µM)
0: all assays above

Cc1ccc(OCCSc2ncccn2)c(Br)c1 [ZLN024 (hydrochloride)] (10 µM)
0: all assays above

NCCNS(=O)(=O)c1cccc2c(Cl)cccc12 [A-3 (hydrochloride)] (10 µM)
0: all assays above

Cc1cc(O)c2c(c1)C(=O)c1cc(O)cc(O)c1C2=O [Emodin] (10 µM)
0: all assays above

C=C(CC[C@@H](C(=O)O)[C@H]1[C@H](O)C[C@@]2(C)C3=C(CC[C@]12C)[C@@]1(C)CC[C@H](OC(C)=O)C(C)(C)[C@@H]1CC3)C(C)C [Pachymic acid] (10 µM)
0: all assays above

COc1ccc(OC)c(C2C(C#N)=C(N)Oc3n[nH]c(-c4ccc5ccccc5c4)c32)c1 (stereo not given) (10 µM)
0: all assays above

O=Nc1c(-c2c(O)[nH]c3ccc(F)cc23)[nH]c2ccccc12 [5'-Fluoroindirubinoxime] (10 µM)
3: [1]
0: all other assays above

COc1cc2nccc(Oc3ccc(NC(=O)NC4CC4)c(Cl)c3)c2cc1C(N)=O [Lenvatinib (mesylate)] (10 µM)
3: [8]
4: [6]
1: [9]
0: all other assays above

C[C@@]1(c2ncncc2F)NC(=O)c2cc(-c3cn[nH]c3)ccc21 (10 µM)
0: all assays above

CN1CCN(c2cccc(Nc3nc4c(-c5ccc(S(C)(=O)=O)cc5)cccn4n3)c2)CC1 (10 µM)
0: all assays above

CN1CCN(c2cnc3c(C4CCN(C(=O)c5ccc(OC(F)(F)F)cc5N)CC4)ncnc3c2)CC1 (10 µM)
0: all assays above

Oc1cc(O)c2cc(O)c(-c3cc(O)c(O)c(O)c3)[o+]c2c1 [Delphinidin (chloride)] (10 µM)
1: [3] | [6] | [9] | [10]
0: all other assays above

O=C(O)CCC(=O)Nc1ccc(Br)cn1 [Bikinin] (10 µM)
0: all assays above

Cc1ccc(CNc2ncnc3ccc(-c4ccc(CO)o4)cc23)o1 (10 µM)
0: all assays above
